# Results as given in paper PMC2527822.
# By UniProt entry, the sequences of proteins in these tests, tags left out. Where a name states a change or a piece, a line headed by the entry shows the natural chain unless it says otherwise. Chains listed by the source or under a name are the forms on record and can include a tag or linker.
# UniProt P03372: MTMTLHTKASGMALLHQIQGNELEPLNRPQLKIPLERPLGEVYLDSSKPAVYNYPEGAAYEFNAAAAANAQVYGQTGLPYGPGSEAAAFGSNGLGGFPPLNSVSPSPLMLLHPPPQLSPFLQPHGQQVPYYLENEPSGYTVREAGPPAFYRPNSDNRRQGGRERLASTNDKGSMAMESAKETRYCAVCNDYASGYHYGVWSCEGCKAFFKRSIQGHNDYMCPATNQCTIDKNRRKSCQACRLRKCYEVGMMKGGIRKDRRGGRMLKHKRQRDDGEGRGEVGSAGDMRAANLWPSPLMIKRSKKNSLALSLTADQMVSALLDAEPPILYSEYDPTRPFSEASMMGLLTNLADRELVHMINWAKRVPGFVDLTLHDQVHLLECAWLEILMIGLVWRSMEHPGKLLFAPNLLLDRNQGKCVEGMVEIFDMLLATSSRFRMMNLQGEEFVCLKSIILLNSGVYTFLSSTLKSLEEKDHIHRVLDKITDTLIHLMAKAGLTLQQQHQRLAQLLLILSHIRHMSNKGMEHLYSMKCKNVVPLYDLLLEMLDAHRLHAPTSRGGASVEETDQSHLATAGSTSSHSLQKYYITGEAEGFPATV
# endogenous MI-ER1α of MCF-7 cells (human (endogenous in MCF-7)) (Q8N108-16, form named): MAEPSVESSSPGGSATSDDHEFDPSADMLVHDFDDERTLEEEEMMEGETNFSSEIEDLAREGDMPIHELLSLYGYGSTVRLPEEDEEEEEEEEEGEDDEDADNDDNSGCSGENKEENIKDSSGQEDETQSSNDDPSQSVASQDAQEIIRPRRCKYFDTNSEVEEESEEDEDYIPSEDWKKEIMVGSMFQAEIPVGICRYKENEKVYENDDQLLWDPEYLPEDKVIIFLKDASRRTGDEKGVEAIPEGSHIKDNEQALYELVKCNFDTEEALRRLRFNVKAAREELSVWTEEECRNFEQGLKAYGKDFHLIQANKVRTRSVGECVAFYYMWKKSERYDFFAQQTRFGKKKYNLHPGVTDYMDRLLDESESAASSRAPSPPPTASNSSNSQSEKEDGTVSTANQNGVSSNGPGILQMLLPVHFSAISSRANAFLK
# No constants are given. Whether binding was seen depends on the method and setting. Binding seen in cells or lysates may run through a third protein. Some entries that bind do so weakly or less than the wild type.
# What was measured:
# [1] = target: oestrogen receptor-α (hERα), expressed from pcDNA3-herα (human) (UniProt P03372); assay: co-IP; HEK293 cells co-transfected with pcDNA3-erα and pCS3+MT-mier1α; treated with vehicle or 10 nM E2 for 3 h before extraction; extracts immunoprecipitated with anti-ERα, Western blot stained for MI-ER1α
# [2] = target: endogenous MI-ER1α of MCF-7 cells (human (endogenous in MCF-7)) (UniProt Q8N108); assay: co-IP; non-transfected MCF-7 cells, endogenous proteins; treated with vehicle or 10 nM E2; extracts immunoprecipitated with anti-MI-ER1α (pre-immune as control), Western blot with anti-ERα
binding [1],binding [2],Substance
binds,,"MI-ER1α (mesoderm induction early response 1, alpha isoform), expressed from pCS3+MT-hmi-er1α (from UniProt Q8N108-16 1-433)"
,binds,endogenous oestrogen receptor-α (ERα) of MCF-7 cells (from UniProt P03372 1-595)
